This is an account of results in publication PMC7084690, “N-terminal Backbone Pairing Shifts in CCL5-^12AAA^14 Dimer Interface: Structural Significance of the FAY Sequence” (International Journal of Molecular Sciences, 2020).

The target in the experiment is T1, CCL5-F12A (human), P13501.
T1 chain: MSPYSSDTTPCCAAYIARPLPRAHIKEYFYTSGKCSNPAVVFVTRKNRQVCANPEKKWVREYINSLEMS
In words: NMR titration; pH titration followed by 1H,15N-HSQC; this point pH 5.0 (for the wild type maintained until pH 6.0); 0.2 mM 15N-labelled protein, 25 mM sodium acetate, 150 mM NaCl, 10% D2O, 298 K; dimers to soluble oligomers, read from the loss of resonance intensity; both purified. The note with it: remark: other sources report otherwise.

Results are given in words; binding and its absence hold for the method and conditions named. Some binding calls cover weakened binding; strength is not graded here.

B1: CCL5-F12A, P13501 24-91 (natural protein)
chain: MSPYSSDTTPCCAAYIARPLPRAHIKEYFYTSGKCSNPAVVFVTRKNRQVCANPEKKWVREYINSLEMS
Regarding B1, the binding entry is “binds”.
